# Source: paper PMC3646009
# By UniProt entry, the sequences of proteins in these tests, tags left out. Residues count along the entry.
# human nesprin-1 spectrin repeat 73 (NES1SR73) (Q8NF91, residues 8416-8552): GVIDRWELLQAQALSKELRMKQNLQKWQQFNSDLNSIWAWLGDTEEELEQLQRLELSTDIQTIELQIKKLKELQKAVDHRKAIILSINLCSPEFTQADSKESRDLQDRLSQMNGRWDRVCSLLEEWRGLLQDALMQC
# human nesprin-1 spectrin repeat 74 (NES1SR74) (Q8NF91, residues 8554-8667): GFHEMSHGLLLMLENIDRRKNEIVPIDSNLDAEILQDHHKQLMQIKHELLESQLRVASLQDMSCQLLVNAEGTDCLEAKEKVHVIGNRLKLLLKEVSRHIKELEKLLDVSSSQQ
# No constants are given. Whether binding was seen depends on the method and setting.
# B1: human nesprin-2 spectrin repeat 55 (NES2SR55) (domain or fragment, UniProt Q8WXH0 6529-6664)
# chain: SGAFDRWEMIQAQELHNKLKIKQNLQQLNSDISAITTWLKKTEAELEMLKMAKPPSDIQEIELRVKRLQEILKAFDTYKALVVSVNVSSKEFLQTESPESTELQSRLRQLSLLWEAAQGAVDSWRGGLRQSLMQCQ
# B2: human nesprin-2 spectrin repeat 56 (NES2SR56) (domain or fragment, UniProt Q8WXH0 6665-6771)
# chain: DFHQLSQNLLLWLASAKNRRQKAHVTDPKADPRALLECRRELMQLEKELVERQPQVDMLQEISNSLLIKGHGEDCIEAEEKVHVIEKKLKQLREQVSQDLMALQGTQ
# Key:
# Assay in all cases: NMR translational diffusion (double stimulated echo) + 1D NMR line widths; each repeat alone in solution; 298 K; 20 mM sodium phosphate pH 7.0, 50 mM sodium chloride, 2 mM dithiothreitol, 0.02% sodium azide; protein 40-200 µM; both purified
# [1] = target: human nesprin-1 spectrin repeat 73 (NES1SR73) (human) (UniProt Q8NF91)
# [2] = target: human nesprin-1 spectrin repeat 74 (NES1SR74) (human) (UniProt Q8NF91)
# [3] = target: human nesprin-2 spectrin repeat 55 (NES2SR55) (human) (UniProt Q8WXH0)
# [4] = target: human nesprin-2 spectrin repeat 56 (NES2SR56) (human) (UniProt Q8WXH0)
molecule,measurement,setting,value
human nesprin-1 spectrin repeat 73 (NES1SR73) (from UniProt Q8NF91 8416-8552) (domain or fragment),binding,[1],no binding (tested: 40-200 µM)
human nesprin-1 spectrin repeat 74 (NES1SR74) (from UniProt Q8NF91 8554-8667) (domain or fragment),binding,[2],no binding (tested: 40-200 µM)
B1,binding,[3],no binding (tested: 40-200 µM)
B2,binding,[4],no binding (tested: 40-200 µM)
